In PMC9481931:

Target: T1, Ataxin-2 (Drosophila melanogaster (endogenous in embryo extracts)) (UniProt Q8SWR8)
T1 sequence: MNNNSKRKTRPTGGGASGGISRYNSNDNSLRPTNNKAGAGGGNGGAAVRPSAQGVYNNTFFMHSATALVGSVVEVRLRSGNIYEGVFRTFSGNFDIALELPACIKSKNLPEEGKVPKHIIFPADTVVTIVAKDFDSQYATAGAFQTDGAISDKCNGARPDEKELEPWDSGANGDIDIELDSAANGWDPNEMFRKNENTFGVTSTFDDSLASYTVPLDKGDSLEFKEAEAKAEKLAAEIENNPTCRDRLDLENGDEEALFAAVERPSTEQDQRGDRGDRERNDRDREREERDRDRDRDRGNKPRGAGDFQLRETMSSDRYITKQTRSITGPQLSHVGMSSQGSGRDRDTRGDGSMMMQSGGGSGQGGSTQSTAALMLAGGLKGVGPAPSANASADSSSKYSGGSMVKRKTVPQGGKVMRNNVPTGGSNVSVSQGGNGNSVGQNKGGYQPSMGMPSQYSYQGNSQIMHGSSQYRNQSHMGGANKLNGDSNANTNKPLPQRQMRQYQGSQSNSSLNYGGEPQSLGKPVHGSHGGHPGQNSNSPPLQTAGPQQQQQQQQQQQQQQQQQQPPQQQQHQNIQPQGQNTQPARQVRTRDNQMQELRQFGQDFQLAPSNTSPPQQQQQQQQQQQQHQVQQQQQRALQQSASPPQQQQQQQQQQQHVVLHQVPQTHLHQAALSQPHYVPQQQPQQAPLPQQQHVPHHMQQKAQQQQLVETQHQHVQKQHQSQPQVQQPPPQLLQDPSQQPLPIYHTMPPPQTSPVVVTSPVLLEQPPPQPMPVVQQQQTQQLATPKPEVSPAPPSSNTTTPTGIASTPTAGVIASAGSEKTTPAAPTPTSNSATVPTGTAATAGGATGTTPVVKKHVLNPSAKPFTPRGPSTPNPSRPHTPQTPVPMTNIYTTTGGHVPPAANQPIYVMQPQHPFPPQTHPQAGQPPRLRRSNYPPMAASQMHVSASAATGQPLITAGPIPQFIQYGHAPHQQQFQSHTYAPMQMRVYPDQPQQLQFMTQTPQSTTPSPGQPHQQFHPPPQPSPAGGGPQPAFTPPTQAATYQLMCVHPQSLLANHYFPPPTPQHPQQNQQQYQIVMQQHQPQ
Experiment: co-IP; small-scale IP with 2 ul Atx2 serum on Protein-A Dynabeads, 700 ug embryo extract (wild type and Dicer-2 null), performed as in Fig 3D (RNases); Western blot; interactions with Wispy and Tyf fully preserved in Dicer-2 null extracts (Fig 3E)

With Twenty-four as the substance, how does the binding read?
The binding was “binds”.

Results are given in words; binding and its absence hold for the method and conditions named. Binding seen in cells or lysates may run through a third protein. A result given as binding can be weak or reduced; the word gives no strength.
